Where no end group is shown, it is not given here. [ ]: non-standard residue; d: D form. Cit = NC(=O)NCCC[C@H](N)C(=O)O
Tested on: RA sera
Experiment: IgG response to cyclic citrullinated FBG peptides in RA and control sera
Format: binding, human
Settings: RA sera n=20, positivity by 95th percentile of the normal group
Source text: (A) Peptides with sequences corresponding to the amino acid sequence of FBG were designed, with the addition of cysteine residues at the amino and carboxy termini and the exchange of arginine for citrulline residues at positions identified by LC-MS/MS. (B) IgG response to citrullinated FBG peptides and arginine containing control peptides in patients with rheumatoid arthritis (RA; n=20) and healthy controls (n=20). The 95th percentile of the control sera was used to determine positivity (dashed line). Mann-Whitney U test was used to calculate p values for differences between groups (n.s.=no significant difference, *=p<0.05 and **=p<0.01, ***=p<0.001, […]).
With reference to FIG. 31, the antibody response in 20 RA and 20 control sera to 6 cyclic FBG peptides, encompassing citrulline residues was evaluated.

## CVFLRRKNG[Cit]ENFYQNWC (cysteine pairing not given here) [CIT55]
  RA patients positive for the epitope: about 35%

## CEMKLRPSNFRNLEG-Cit-Cit-KRC [CIT219/220]
  RA patients positive for the epitope: 30%

## CEMKL-Cit-PSNF-Cit-NLEGRRKRC [CIT209/214]
  RA patients positive for the epitope: 20%

— patent US10088479B2, “Biomarker and uses thereof” (ISIS INNOVATION LIMITED, priority 2014, dated 2018)
